Laboratory results reported in PubChem BioAssay AID720533 (National Center for Advancing Translational Sciences (NCATS), 2013).
Values joined by “and” are separate entries in the source; they are usually repeats but may differ in a detail not shown here. Identical values can stand only once. The campaign covered roughly 18,000 compounds. About 750 (4.2%) were called active. Inconclusive means that the source gave no clear call. Such entries were picked first, then a sample of the others. Calls come from the whole dose curve; tested in HEK293 cells. Where the call is inconclusive, the potency comes from a doubtful curve fit.

Assay: qHTS for Inhibitors of binding or entry into cells for Lassa Virus
Settings: Lassa virus pseudotyped entry inhibition, cell-based qHTS; activity change, negative = inhibition: at 49.2 µM (top of the series) unless noted
% is set by controls: 0 for no effect and ±100 for the full control effect; potency is the fitted concentration of half-maximal effect.

Row | Compound | Potency | activity change, negative = inhibition
1 | NCCNS(=O)(=O)c1cccc2cnccc12 | inconclusive: 35.5 µM [inhibitor, single point] | 
2 | Cc1cc(-c2ccccc2)nnc1NCCN1CCOCC1 | inactive | 
3 | Nc1ccc(CCNc2ncnc3c2ncn3C2OC(CO)C(O)C2O)cc1 (stereo unspecified) |  | inactive: -8.28%
4 | O=C(O)CCC1CCCC1 |  | inactive: 9.27%
5 | C[C@H]1CC[C@H]2C(=O)N(Cc3cccc([N+](=O)[O-])c3)C[C@H](O)CN2[C@H]1c1cccc(Br)c1 |  | inactive: 7.82% [at 8.59 µM]
6 | CC(CCN1CCCCc2nc(C)c(C)cc21)=NO[C@H](C)c1cn([C@H](CO)Cc2ccccc2)nn1 |  | inactive: 9.27% [at 8.59 µM]
7 | COc1cc(NC(C)CCCN)c2ncccc2c1 (stereo unspecified) | inactive | 
8 | Cc1cc2c(c(C)c1Br)C(c1ccc3c(c1)OCO3)CC(=O)O2 (stereo unspecified) | inconclusive: 39.8 µM [inhibitor, single point] | 
9 | C=CC[C@]1(C(=O)OC)C=C[C@H](C)[C@@H](c2ccccc2)N1C(=O)C(F)(F)F |  | inactive: 9.67% [at 8.59 µM]
10 | Cc1ccc(C(=O)N(Cc2cc3cccc(C)c3nc2N2CCC(O)CC2)C2CC2)cc1 |  | inactive: -26.4%
11 | COc1ccccc1[C@H]1C(c2cccc(Cl)c2)=NN(c2ccccc2)[C@@H]1CO | inconclusive: 39.8 µM [inhibitor, single point] | 
12 | CNC(=O)[C@H]1O[C@H](n2cnc3c(NCc4cccc(I)c4)nc(Cl)nc32)[C@@H](O)[C@@H]1O | inconclusive: 28.2 µM [inhibitor, partial curve] | 
13 | CCC[C@H]1CN(c2ccccc2)C(=O)[C@H]1CC(=O)NC |  | inactive: 25.7%
14 | CC(C)(C)CC(C)(C)c1ccc(O)c(Cc2ccc(Cl)cc2Cl)c1 | inconclusive: 35.5 µM [inhibitor, single point] | 
15 | O=S(=O)(N[C@@H](CO)Cc1ccccc1)c1ccc(Br)cc1F |  | inactive: 9.99%
16 | Oc1ccc2c3c1O[C@H]1c4oc5ccccc5c4C[C@]4(O)[C@H](C2)N(CC2CC2)CC[C@@]314 | active: 28.2 µM | 
17 | CSc1ccc(Oc2cccc3c2S(=O)(=O)N([C@H](C)c2ccccc2)C[C@@H](COCc2ccccc2)O3)cc1C | inconclusive: 4.99 µM [inhibitor, partial curve, poor fit] | 
18 | CC(C)C[C@@H](CC(=O)N[C@@H](CCCN)CC(=O)N[C@@H]1CCCC[C@H]1C(=O)N[C@H](CC(=O)N[C@@H](CCC(=O)O)CC(=O)O)Cc1c[nH]c2ccccc12)NC(=O)[C@@H]1CCCC[C@H]1N |  | inactive: 9.9%
19 | CCCCCCCCCCCCCC[N+](C)(C)C | inconclusive: 12.6 µM [inhibitor, partial curve] | 
20 | COCOc1c2c(c(OCOC)c3c(OCOC)cccc13)C(=NNS(C)(=O)=O)C1=C2CCCC1 |  | inactive: -3.14% [at 8.59 µM]
21 | COc1ccc(C2CC(=O)Oc3cc(OC)ccc32)cc1 (stereo unspecified) |  | inactive: -9.28%

Row | Compound | Potency | activity change, negative = inhibition
22 | C=CC1=C(C(=O)O)N2C(=O)[C@@H](NC(=O)/C(=N\O)c3csc(N)n3)[C@H]2SC1 (stereo in doubt) | inactive | 
23 | Cc1ccc(O)cc1Nc1ccnc2cc(-c3ccccn3)ccc12 | inconclusive: 25 µM [inhibitor, partial curve, poor fit] | 
24 | COc1ccc(C2Oc3c(I)c(OC)cc(OC)c3CC2O)cc1OC (stereo unspecified) | inconclusive: 8.91 µM [inhibitor, partial curve] | 
25 | CC(C)C[C@H]1COc2cc(F)ccc2S(=O)(=O)N1 |  | inconclusive: -1.84% [inhibitor]
26 | CCC(=O)OC1CCC2C3CCc4cc(O)ccc4C3CC[C@]12C (stereo partly specified) | active: 158 µM | 
27 | Cc1cnc(SCc2ccccn2)nc1C1CCCN(C(=O)c2cccc(-c3cccc(F)c3)c2)C1 (stereo unspecified) | inconclusive: 35.5 µM [inhibitor, single point] | 
28 | O=C(C1CCCCC1)N1C[C@@H](n2cc(-c3ccc(F)cc3)nn2)[C@@H](O)C[C@@H]1c1ccc(Cl)cc1 | inconclusive: 35.3 µM [inhibitor, single point] | 
29 | CCCCOc1cc(CC2CNC(=O)N2)ccc1OC (stereo unspecified) | inactive | 
30 | Cc1cccc(CNc2ccnc(-c3ccccc3CN(C)C)n2)c1 | inconclusive: 15.8 µM [inhibitor, single point] | 
31 | CC(C)C1C(=O)N(Cc2cn(Cc3ccco3)nn2)CCS(=O)(=O)N1Cc1ccc(-c2ccccc2)cc1 (stereo unspecified) | inconclusive: 3.96 µM [inhibitor, full curve, poor fit] | 
32 | N#CC(C#N)=Cc1ccc([N+](=O)[O-])c(O)c1 | inconclusive: 20 µM [inhibitor, single point] | 
33 | COc1ccc(-c2coc3ccc(OC4OC(COC(C)=O)C(OC(C)=O)C(OC(C)=O)C4OC(C)=O)c(OC(C)=O)c3c2=O)cc1 (stereo unspecified) | inconclusive: 10 µM [inhibitor, full curve] | 
34 | Cc1cc(O)c2ccccc2c1O | inconclusive: 35.5 µM [inhibitor, single point] | 
35 | COc1cc(N)c(Cl)cc1C(=O)N[C@H]1CCN(CCCOc2ccc(F)cc2)C[C@@H]1OC | inconclusive: 17.8 µM [inhibitor, partial curve, poor fit] | 
36 | CN(C)CCCN1c2ccccc2Sc2ccc(Cl)cc21 | inconclusive: 7.08 µM [inhibitor, single point] and inconclusive: 35.5 µM [inhibitor, single point] and inconclusive: 25.1 µM [inhibitor, partial curve, poor fit] | 
37 | COC1=C[C@@H](C(=O)N[C@H]2CCCC[C@H]2NC(C)=O)[C@@H](C)[C@H](c2ccccc2)CC1=O |  | inconclusive: 7.08% [inhibitor] [at 8.59 µM]
38 | CC(CC(C)(C)C)CP(=O)(O)CC(C)CC(C)(C)C (stereo unspecified) | inconclusive: 35.5 µM [inhibitor, single point] | 
39 | CN1[C@@H]2CC[C@H]1CC(OC(c1ccccc1)c1ccccc1)C2 (stereo partly specified) | active: 14.1 µM | 
40 | O=C(CCN1CCC(c2ccccc2)C1)c1ccc2c(c1)OCCO2 (stereo unspecified) | inconclusive: 35.5 µM [inhibitor, partial curve, poor fit] | 
41 | COCC1CCCN(Cc2ccc3c(c2)CN(C(=O)c2cn4ccc(C)cc4n2)CCO3)C1 (stereo unspecified) |  | inactive: -5.1%
